Data source: PubChem BioAssay AID686938 (Drosophila RNAi Screening Center, 2013)

Assay: 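Looking for CRAC channel components and the factors controlling them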 (primary screen)
Cell system: Drosophila S2R+ cells
Knock-down reagent: long dsRNA against Drosophila genes, about 0.25 µg dsRNA per well, roughly 10,000 cells
Time to read-out: 5 days of knock-down before the calcium assay
Conditions: thapsigargin (SERCA pump blocker) to empty calcium stores; entry signal taken 4 min after adding it
Measured: 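Duplicate raw fluo-4 intensities per well from a plate reader, at rest and four minutes after thapsigargin emptied calcium stores; entry-to-rest ratio filled for only some wells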
Scale: calcium entry signal: higher = stronger calcium signal after store depletion; resting calcium signal: higher = higher resting calcium signal
Call rule: 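Called when the plate z-score of the entry-to-rest ratio, mean of duplicates, falls below −3; wells with low overall dye signal (Fmax z below −2) or more than five off-targets excluded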
Meaning of the calls: active = strongly reduced calcium entry; inactive = no strong reduction
In all, the deposit lists about 23,000 reagents; below is an unselected part of those with a known target gene and a result. In the full data, 75 (0.33%) were called active. 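Raw plate signals without normalisation; calls rest on plate z-scores that were not deposited; ratio present for only 364 wells.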 Reagents against one gene are numbered here. A plus sign joins genes that one reagent is predicted to hit. Reagent sequences are not shown. Not stated in the record: the dose of the treatment.

The opening 4 records, to show the layout:
gene	dsRNA no.	calcium entry signal, replicate 1 (fluorescence units)	calcium entry signal, replicate 2 (fluorescence units)	resting calcium signal, replicate 1 (fluorescence units)	resting calcium signal, replicate 2 (fluorescence units)	Call
CG11771	1	4.56e7	4.61e7	2.03e7	2.02e7	inactive
peo (pendolino)	1	4.36e7	3.40e7	1.84e7	1.65e7	inactive
Pglym78 (Phosphoglyceromutase 78)	1	2.69e7	2.91e7	1.28e7	1.53e7	inactive
ana (anachronism)	1	5.86e7	4.51e7	2.53e7	2.06e7	inactive

Results, from the first entry:
gene	dsRNA no.	calcium entry signal, replicate 1 (fluorescence units)	calcium entry signal, replicate 2 (fluorescence units)	resting calcium signal, replicate 1 (fluorescence units)	resting calcium signal, replicate 2 (fluorescence units)	Call
CG11771	1	4.56e7	4.61e7	2.03e7	2.02e7	inactive
peo (pendolino)	1	4.36e7	3.40e7	1.84e7	1.65e7	inactive
Pglym78 (Phosphoglyceromutase 78)	1	2.69e7	2.91e7	1.28e7	1.53e7	inactive
ana (anachronism)	1	5.86e7	4.51e7	2.53e7	2.06e7	inactive
CG11598	1	3.27e7	3.52e7	1.47e7	1.67e7	inactive
p120ctn (p120 catenin)	1	3.35e7	3.83e7	1.70e7	1.67e7	inactive
CG14502	1	3.61e7	3.27e7	1.69e7	1.76e7	inactive
stan (starry night)	1	3.97e7	2.23e7	1.98e7	1.23e7	inactive
stan (starry night)	2	3.55e7	3.97e7	1.70e7	1.83e7	inactive
CG13627	1	2.80e7	4.09e7	1.67e7	1.66e7	inactive
CG17560	1	2.25e7	2.42e7	1.16e7	3.73e7	inactive
Tsp42Eo (Tetraspanin 42Eo)	1	2.76e7	4.16e7	1.35e7	1.71e7	inactive
plh (pasang lhamu)	1	2.92e7	4.70e7	1.42e7	2.14e7	inactive
Yip1d1 (Yip1 domain-containing 1)	1	4.36e7	3.15e7	1.85e7	1.58e7	inactive
Mrp4 (Multidrug resistance protein 4)	1	3.96e7	4.06e7	1.96e7	1.99e7	inactive
tll (tailless)	1	4.00e7	6.27e7	1.94e7	2.35e7	inactive
Rfx	1	3.58e7	3.27e7	1.75e7	1.70e7	inactive
CG31098	1	3.28e7	4.19e7	1.87e7	1.94e7	inactive
CG13138	1	2.74e7	3.74e7	1.40e7	1.63e7	inactive
Marcal1	1	3.95e7	3.95e7	1.78e7	1.63e7	inactive
CG31650	1	3.90e7	3.32e7	2.19e7	1.67e7	inactive
CG30281	1	2.85e7		1.48e7		inactive
RluA-2 (RluA pseudouridine synthase 2)	1	3.97e7		2.26e7		inactive
CG43737	1	3.81e7	2.38e7	1.93e7	1.22e7	inactive
CG43737	2	4.52e7	2.36e7	2.16e7	1.16e7	inactive
CG13054	1	3.30e7	5.93e7	1.76e7	2.11e7	inactive
by (blistery)	1	3.14e7	2.97e7	1.57e7	1.60e7	inactive
JIL-1 (JIL-1 kinase)	1	3.79e7	3.28e7	2.44e7	1.29e7	inactive
Best3 (Bestrophin 3)	1	3.83e7	4.11e7	1.85e7	1.54e7	inactive
Ugt49C1 (UDP-glycosyltransferase family 49 member C1)	1	2.79e7	4.21e7	1.53e7	1.97e7	inactive
CG31883	1	5.52e7		2.59e7		inactive
Nedd4	1	6.47e7	7.53e7	2.59e7	2.64e7	inactive
Nedd4	2	4.69e7	3.87e7	2.53e7	1.77e7	inactive
IP3K1 + hpRNA:CR18854	1	3.95e7	4.92e7	1.62e7	1.99e7	inactive
Tsp42Ed (Tetraspanin 42Ed)	1	2.73e7	1.95e7	1.27e7	1.05e7	inactive
CadN2 (Cadherin-N2)	1	4.86e7	3.70e7	2.14e7	1.70e7	inactive
CadN2 (Cadherin-N2)	2	4.38e7	3.84e7	2.05e7	1.86e7	inactive
CadN2 (Cadherin-N2)	3	4.86e7	3.53e7	2.07e7	1.74e7	inactive
Irp-1B (Iron regulatory protein 1B)	1	3.61e7	3.40e7	1.64e7	1.70e7	inactive
Ufd4 (Ubiquitin fusion-degradation 4-like)	1	3.44e7	4.18e7	1.86e7	1.92e7	inactive
CG34253 + lncRNA:CR32194	1	4.10e7	3.62e7	1.96e7	2.06e7	inactive
uncNacbeta	1	2.31e7	1.88e7	1.17e7	1.03e7	inactive
lectin-37Da	1	4.07e7	4.36e7	2.05e7	2.25e7	inactive
lectin-37Da	2	4.04e7	3.72e7	2.16e7	1.52e7	inactive
CG32572	1	3.36e7	3.17e7	1.69e7	1.50e7	inactive
CG32572	2	3.64e7	2.84e7	1.88e7	1.41e7	inactive
anne (anne boleyn)	1	1.18e7	2.09e7	6.99e6	9.45e6	inactive
CG5377	1	2.98e7	3.35e7	6.59e7	1.56e7	inactive
CG8142	1	3.34e7	3.29e7	1.52e7	1.53e7	inactive
CG14400	1	3.60e7	5.51e7	1.88e7	2.25e7	inactive
CG14830	1	4.16e7	4.02e7	1.98e7	1.81e7	inactive
CG4049	1	3.16e7	4.10e7	1.64e7	1.92e7	inactive
Rpt3 (Regulatory particle triple-A ATPase 3)	1	2.11e7	2.52e7	1.55e7	1.73e7	inactive
CG11151	1	2.26e7	1.74e7	1.30e7	9.40e6	inactive
CG31301	1	3.06e7	3.88e7	1.43e7	1.87e7	inactive
PSMG1 (Proteasome assembly chaperone 1)	1	3.61e7	4.30e7	1.53e7	1.92e7	inactive
hog	1	3.18e7	3.88e7	1.63e7	1.63e7	inactive
Gr64d + Gr64e	1	4.07e7	1.64e7	2.12e7	8.99e6	inactive
